Laboratory results taken from paper PMC10202830, “Cingulin and paracingulin tether myosins-2 to junctions to mechanoregulate the plasma membrane” (The Journal of Cell Biology, 2023).
These are yes or no findings as the source states them, for the method shown. Sequences can lack the tags named with a protein.

The chains behind the UniProt entries cited, without tags or fusion partners. Where a name states a change or a piece, a line headed by the entry shows the natural chain unless it says otherwise.
UniProt Q6URW6: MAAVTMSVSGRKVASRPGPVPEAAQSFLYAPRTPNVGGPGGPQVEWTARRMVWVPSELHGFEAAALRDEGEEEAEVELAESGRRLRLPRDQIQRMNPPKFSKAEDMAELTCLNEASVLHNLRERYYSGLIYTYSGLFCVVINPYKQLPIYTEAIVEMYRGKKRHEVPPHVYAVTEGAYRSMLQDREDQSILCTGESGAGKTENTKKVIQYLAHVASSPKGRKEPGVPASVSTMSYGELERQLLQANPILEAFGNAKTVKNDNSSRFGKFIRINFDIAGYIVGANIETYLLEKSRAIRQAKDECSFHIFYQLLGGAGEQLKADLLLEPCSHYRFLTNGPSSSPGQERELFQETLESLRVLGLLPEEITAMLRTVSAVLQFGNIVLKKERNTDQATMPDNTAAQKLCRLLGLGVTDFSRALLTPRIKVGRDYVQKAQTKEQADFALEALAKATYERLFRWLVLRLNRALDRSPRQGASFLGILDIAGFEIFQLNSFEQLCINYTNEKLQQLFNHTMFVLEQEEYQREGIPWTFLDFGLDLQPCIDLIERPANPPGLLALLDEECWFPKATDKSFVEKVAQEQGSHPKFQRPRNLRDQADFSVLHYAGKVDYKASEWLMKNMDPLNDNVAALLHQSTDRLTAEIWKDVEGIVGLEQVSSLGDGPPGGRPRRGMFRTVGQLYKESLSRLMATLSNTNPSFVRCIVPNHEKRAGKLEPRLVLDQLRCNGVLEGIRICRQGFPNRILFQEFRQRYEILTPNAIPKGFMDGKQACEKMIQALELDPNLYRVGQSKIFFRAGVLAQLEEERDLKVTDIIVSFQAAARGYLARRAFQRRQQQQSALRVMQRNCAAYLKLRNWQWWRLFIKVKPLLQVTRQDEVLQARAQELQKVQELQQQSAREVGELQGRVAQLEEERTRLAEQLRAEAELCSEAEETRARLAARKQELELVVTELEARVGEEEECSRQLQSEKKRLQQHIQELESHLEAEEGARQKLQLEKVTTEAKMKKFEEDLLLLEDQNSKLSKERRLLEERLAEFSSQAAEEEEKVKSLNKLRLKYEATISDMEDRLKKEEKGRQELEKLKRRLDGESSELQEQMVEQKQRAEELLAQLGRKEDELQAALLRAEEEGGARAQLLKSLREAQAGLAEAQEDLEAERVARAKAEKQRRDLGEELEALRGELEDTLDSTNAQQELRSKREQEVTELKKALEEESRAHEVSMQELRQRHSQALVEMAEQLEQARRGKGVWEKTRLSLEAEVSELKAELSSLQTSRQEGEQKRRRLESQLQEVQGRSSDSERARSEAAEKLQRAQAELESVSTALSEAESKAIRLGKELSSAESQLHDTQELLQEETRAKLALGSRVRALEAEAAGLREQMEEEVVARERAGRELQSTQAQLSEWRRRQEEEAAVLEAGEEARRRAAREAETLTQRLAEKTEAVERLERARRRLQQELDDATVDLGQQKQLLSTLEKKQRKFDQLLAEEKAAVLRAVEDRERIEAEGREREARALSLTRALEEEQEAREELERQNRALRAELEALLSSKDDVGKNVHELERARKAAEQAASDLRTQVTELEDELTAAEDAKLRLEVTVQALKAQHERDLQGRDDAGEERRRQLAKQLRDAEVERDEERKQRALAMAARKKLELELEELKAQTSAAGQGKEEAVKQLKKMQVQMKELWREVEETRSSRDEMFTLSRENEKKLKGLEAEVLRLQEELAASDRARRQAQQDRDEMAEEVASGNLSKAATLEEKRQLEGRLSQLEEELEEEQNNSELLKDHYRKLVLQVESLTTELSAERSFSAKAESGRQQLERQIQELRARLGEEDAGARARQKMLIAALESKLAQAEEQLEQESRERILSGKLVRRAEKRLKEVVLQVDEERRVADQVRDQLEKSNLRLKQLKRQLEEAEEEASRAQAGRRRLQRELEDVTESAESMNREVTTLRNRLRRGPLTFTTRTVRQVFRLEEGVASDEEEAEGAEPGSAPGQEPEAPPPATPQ

Assays:
Experiment in all cases: pull-down; GST-fusion fragments of CGN or CGNL1 as baits; NM2 rod fragments purified from bacteria as preys; IB with anti-NM2 antibodies (Fig. S1 C, D); both purified
GST-CGN (1015–1203) = molecular target: T1, GST-CGN (1015–1203) (UniProt Q9P2M7)
T1 sequence: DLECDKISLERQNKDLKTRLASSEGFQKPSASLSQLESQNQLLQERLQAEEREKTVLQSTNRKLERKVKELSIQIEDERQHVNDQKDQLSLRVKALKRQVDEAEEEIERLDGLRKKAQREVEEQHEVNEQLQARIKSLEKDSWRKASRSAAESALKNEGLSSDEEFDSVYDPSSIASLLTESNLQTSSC

[1] = molecular target: T2, GST-CGNL1 (591–882), Rod1 of CGNL1 (UniProt Q0VF96)
T2 sequence: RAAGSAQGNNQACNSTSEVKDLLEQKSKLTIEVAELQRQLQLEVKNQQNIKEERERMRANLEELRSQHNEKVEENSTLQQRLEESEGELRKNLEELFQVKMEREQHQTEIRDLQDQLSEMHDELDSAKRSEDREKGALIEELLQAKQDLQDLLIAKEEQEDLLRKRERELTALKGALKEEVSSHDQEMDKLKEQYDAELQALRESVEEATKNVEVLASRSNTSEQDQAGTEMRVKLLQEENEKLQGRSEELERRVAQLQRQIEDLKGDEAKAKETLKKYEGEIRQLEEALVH

[2] = molecular target: T3, GST-hCGNL1 (1105–1302) (human) (UniProt Q0VF96)
T3 sequence: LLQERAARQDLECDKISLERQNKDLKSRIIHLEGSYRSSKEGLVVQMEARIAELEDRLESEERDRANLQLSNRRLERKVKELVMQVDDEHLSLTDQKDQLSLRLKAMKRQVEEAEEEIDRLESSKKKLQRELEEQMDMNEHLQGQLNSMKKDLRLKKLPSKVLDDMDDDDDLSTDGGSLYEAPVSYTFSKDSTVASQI

Measured: binding

mNM2C rod (1297–2000), purified (from UniProt Q6URW6) (domain or fragment)
no binding: all assays above
